# Experimental data as given in PubChem BioAssay AID1487 (National Center for Advancing Translational Sciences (NCATS), 2009).
# The list shows a part of the results. Shown are side measurements of this screen, not its main read-out; they come without a call. The list favours compounds with an active or inconclusive main result. Potencies come from curve fits of mixed quality, noted in brackets.
# Assay: qHTS Assay for Modulators of Lamin A Splicing
# Settings: HeLa LMNA splicing GFP/RFP minigene ratio, 48 h
# Outline: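 Read-out is the ratio of GFP to DsRed2 object intensity, acquired by 488 nm laser-scanning cytometry on HeLa lamin A-EGFP minigene reporter cells. Compound incubation 48 hrs at 37 °C in Opti-MEM with 2% FBS; DMSO 0.5% final.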
# [1] = measured here: GFP splicing reporter channel
# [2] = measured here: RFP viability control channel
Structure (SMILES),AC50 [1],AC50 [2]
COc1ccc(OC)c(C2=Nn3c(nnc3-c3cc(OC)c(OC)c(OC)c3)SC2)c1,"12.6 µM [rising, partial curve]","35.5 µM [rising, single point]"
CCn1cc(C(=O)N[C@H](C)c2ccccc2)c(=O)c2cc(F)c(N3CCN(C)CC3)cc21,,"22.4 µM [rising, single point]"
O=c1oc2ccccc2c(N2CCOCC2)c1[N+](=O)[O-],,"1.41 µM [falling, partial curve, poor fit]"
COc1ccc(Oc2cc(Cl)nc(N)n2)cc1,"0.891 µM [rising, partial curve, poor fit]",
S=C(NCc1ccco1)Nc1ccc(Cl)cc1Cl,,"22.4 µM [rising, single point]"
CCOC(=O)C1CCCN(S(=O)(=O)c2cc(Br)cc3c2N(C(=O)C2CC2)CC3)C1 (stereo unspecified),"14.1 µM [rising, partial curve]",
Cc1ccc(CN2CCN(/N=C\c3cccc([N+](=O)[O-])c3)CC2)cc1,,"35.5 µM [rising, single point]"
COc1ccc(/C=C/C(=O)c2ccc(NC3=NCCCS3)cc2)cc1OC,,"28.2 µM [rising, single point]"
CCC(C)(C(=O)NC1CCCC1)N(Cc1ccco1)C(=O)Cc1cccs1 (stereo unspecified),"35.5 µM [rising, single point]","35.5 µM [rising, single point]"
CC(C)C(NC(=O)C1CCCCC1)C(=O)N1CCN(c2ccc(F)cc2)CC1 (stereo unspecified),,"31.6 µM [rising, single point]"
CCN(Cc1ccccc1)C(=O)c1cc2c(=O)oc3ccc(C)cc3c2s1,,"1.26 µM [rising, partial curve, poor fit]"
O=C(NCc1cccnc1)c1ccc(CS(=O)(=O)c2ccc(Br)cc2)o1,,"10 µM [rising, partial curve]"
CC(C)OC(=O)c1cn(-c2ccccc2)nc1-c1ccc2c(c1)OCCO2,"11.2 µM [rising, partial curve]","14.1 µM [rising, single point]"
CCOc1ccc(NC(C)=O)cc1,,"14.1 µM [rising, partial curve]"
CCN(CC)S(=O)(=O)c1cccc(C(=O)NC(C)C(c2cccs2)N2CCCC2)c1 (stereo unspecified),"0.02 µM [rising, full curve, poor fit]",
CCOc1ccccc1CNC(=O)c1cn(-c2ccc(OC)cc2)c(=O)c2ccccc12,"0.158 µM [rising, full curve, poor fit]",
Cc1cc(C(=O)Cn2nnc(-c3ccc(Cl)cc3)n2)c(C)n1CC1CCCO1 (stereo unspecified),"2.82 µM [rising, partial curve, poor fit]","7.08 µM [rising, full curve]"
CS(=O)(=O)N(Cc1ccc(Cl)cc1)c1ccc(C(=O)N/N=C/c2cc3ccccc3nc2Cl)cc1,,"8.91 µM [rising, partial curve, poor fit]"
Cc1cccc(NC(=O)CSc2nc(=O)n(Cc3ccco3)c3c2CCC3)c1C,"0.0178 µM [rising, full curve, poor fit]",
Cc1cc(C)cc(NC(=O)C(=O)NCCCN2CCOCC2)c1,,"0.0398 µM [falling, full curve]"
O=C(CSc1nc2ccccc2o1)N1CCN(c2ccccc2)CC1,"5.62 µM [rising, partial curve, poor fit]","31.6 µM [rising, single point]"
O=c1c(N2CCN(c3cccc(Cl)c3)CC2)csc2ccccc12,"11.2 µM [falling, partial curve]","20 µM [falling, single point]"
COc1cc(/C=C/c2nc3cc(Cl)ccc3c(=O)n2-c2cccc(C(F)(F)F)c2)cc(OC)c1OC,,"6.31 µM [rising, partial curve, poor fit]"
COc1cc2ncnc(Nc3ccc(F)c(Cl)c3)c2cc1OCCCN1CCOCC1,"11.2 µM [falling, single point]","0.000794 µM [rising, full curve, poor fit]"
Cc1cccc(N2CCN(C(=O)c3ccncc3)CC2)c1C,,"22.4 µM [rising, single point]"
S=c1[nH]nc(-c2ccc3ccccc3n2)n1Cc1ccccc1,"0.0891 µM [rising, full curve, poor fit]","0.178 µM [rising, full curve, poor fit]"
CCOCCCN(C(=O)Cn1nnc(-c2ccc(OC)c(OC)c2)n1)C(CC)C(=O)NC1CCCC1 (stereo unspecified),,"5.62 µM [falling, single point]"
Cc1ccc(-n2cc3ccc([N+](=O)[O-])cc3n2)cc1,,"14.1 µM [rising, single point]"

# Arranged by formula weight (smallest number first): part of the list above
Structure (SMILES),AC50 [1],AC50 [2]
COc1ccc(Oc2cc(Cl)nc(N)n2)cc1,"0.891 µM [rising, partial curve, poor fit]",
CCn1cc(C(=O)N[C@H](C)c2ccccc2)c(=O)c2cc(F)c(N3CCN(C)CC3)cc21,,"22.4 µM [rising, single point]"
CCN(CC)S(=O)(=O)c1cccc(C(=O)NC(C)C(c2cccs2)N2CCCC2)c1 (stereo unspecified),"0.02 µM [rising, full curve, poor fit]",
